Measured values published in publication PMC9912985.
Results are given in words; binding and its absence hold for the method and conditions named. For some assays here: In cells and extracts the contact can be indirect. Some entries that bind do so weakly or less than the wild type. For some assays here: Sequences can lack the tags named with a protein.

Chains of the proteins cited; added tags and fusions are not shown.
UniProt P31414: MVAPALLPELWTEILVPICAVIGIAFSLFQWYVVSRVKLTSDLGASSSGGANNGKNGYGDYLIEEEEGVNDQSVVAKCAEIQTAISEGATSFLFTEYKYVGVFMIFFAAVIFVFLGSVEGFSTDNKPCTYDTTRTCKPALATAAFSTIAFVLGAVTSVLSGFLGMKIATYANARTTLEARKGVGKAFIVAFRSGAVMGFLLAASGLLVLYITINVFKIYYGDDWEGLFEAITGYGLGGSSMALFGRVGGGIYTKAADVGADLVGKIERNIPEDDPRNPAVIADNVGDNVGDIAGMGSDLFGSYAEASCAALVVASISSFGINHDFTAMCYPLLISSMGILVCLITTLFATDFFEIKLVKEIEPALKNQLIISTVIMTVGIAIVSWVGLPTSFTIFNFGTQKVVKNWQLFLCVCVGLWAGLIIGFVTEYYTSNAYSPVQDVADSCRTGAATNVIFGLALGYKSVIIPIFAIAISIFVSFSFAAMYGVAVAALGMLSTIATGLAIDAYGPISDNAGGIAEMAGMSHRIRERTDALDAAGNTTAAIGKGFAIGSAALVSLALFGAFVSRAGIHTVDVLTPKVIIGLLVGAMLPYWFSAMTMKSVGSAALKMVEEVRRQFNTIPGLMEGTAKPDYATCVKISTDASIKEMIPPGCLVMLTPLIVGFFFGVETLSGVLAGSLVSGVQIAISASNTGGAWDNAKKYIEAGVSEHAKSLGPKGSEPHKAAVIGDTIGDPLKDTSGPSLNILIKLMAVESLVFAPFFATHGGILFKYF

B1: Arabidopsis thaliana receptor-like protein kinase AtRLK, prey in pPR3N (receptor, UniProt O65238 27-872)
chain: IEFVYPNFTASNLRFVDSSKGAFLLSRNSIFKAGLFSPGGDDSSTGFYFSVVHVDSGSTIWSSNRDSPVSSSGTMNLTPQGISVIEDGKSQIPVWSTPVLASPVKSLRLTDAGNLLLLDHLNVSLWESFDFPTDSIVLGQRLKLGMFLSGSVSRSDFSTGDYKFLVGESDGLMQWRGQNYWKLRMHIRANVDSNFPVEYLTVTTSGLALMARNGTVVVVRVALPPSSDFRVAKMDSSGKFIVSRFSGKNLVTEFSGPMDSCQIPFVCGKLGLCNLDNASENQSCSCPDEMRMDAGKGVCVPVSQSLSLPVSCEARNISYLELGLGVSYFSTHFTDPVEHGLPLLACHDICSKNCSCLGVFYENTSRSCYLVKDSFGSLSLVKNSPENHDLIGYVKLSIRKTNAQPPGNNNRGGSSFPVIALVLLPCSGFFLLIALGLLWWRRCAVMRYSSIREKQVTRPGSFESGDLGSFHIPGLPQKFEFEELEQATENFKMQIGSGGFGSVYKGTLPDETLIAVKKITNHGLHGRQEFCTEIAIIGNIRHTNLVKLRGFCARGRQLLLVYEYMNHGSLEKTLFSGNGPVLEWQERFDIALGTARGLAYLHSGCDQKIIHCDVKPENILLHDHFQPKISDFGLSKLLNQEESSLFTTMRGTRGYLAPEWITNAAISEKADVYSYGMVLLELVSGRKNCSFRSRSNSVTEDNNQNHSSTTTTSTGLVYFPLYALDMHEQGRYMELADPRLEGRVTSQEAEKLVRIALCCVHEEPALRPTMAAVVGMFEGSIPLGNPRMESLNFLRFYGLRFAESSMVEGQNGESETMVFHRRESSNSGGSRQSASYIASQEVSGPR
B2: cLUC-AtRLK (receptor, UniProt O65238 27-872)
chain: B1 chain

Experiments:
[1] = target: Arabidopsis thaliana H+-pyrophosphatase AtAVP1, bait in pBT3-STE (Arabidopsis thaliana) (UniProt P31414); assay: two-hybrid; split-ubiquitin system: bait pBT3-STE : AtAVP1 and prey pPR3N:AtRLK co-transformed into NMY51 yeast; growth on SD/-Leu-Trp-His-Ade, 30 °C, 3-4 d, dilutions 1x to 1000x
[2] = target: nLUC-AtAVP1 (Arabidopsis thaliana) (UniProt P31414); assay: split reporter; luciferase complementary imaging (LCI): nLUC-AtAVP1 and cLUC-AtRLK co-infiltrated by Agrobacterium into tobacco leaves, luminescence read after 48 h

Binder | binding [1] | binding [2]
B1 | binds | 
B2 |  | binds
